Laboratory results published in US11382898B2, “BAX activators and uses thereof in cancer therapy” (Albert Einstein College of Medicine, priority 2017, dated 2022).

Protein sequences, listed by entry. Tags and fused reporters are not part of them.
UniProt Q07812, whole entry: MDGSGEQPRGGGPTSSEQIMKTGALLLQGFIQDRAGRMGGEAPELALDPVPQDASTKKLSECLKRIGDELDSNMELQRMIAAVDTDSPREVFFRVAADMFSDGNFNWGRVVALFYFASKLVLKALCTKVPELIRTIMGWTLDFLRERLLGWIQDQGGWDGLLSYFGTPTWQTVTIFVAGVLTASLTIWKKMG

Tests used:
[1] = target: BAX (Homo sapiens, UniProt Q07812)
[2] = system: THP-1 cells; conditions: non-cytotoxic doses of BTSA1, 24 h
[3] = system: OCI-AML3 leukemia cells; test: Synergistic cytotoxicity with BCL-2 inhibitors in OCI-AML3 leukemia cells; type: cell-based, human; conditions: non-cytotoxic doses, 24 h
[4] = mouse, in vivo

SMILES: O=C1C(=NNc2nccs2)C(c2ccccc2)=NN1c1nc(-c2ccccc2)cs1 [BTSA1, 5-phenyl-2-(4-phenylthiazol-2-yl)-4-(2-(thiazol-2-yl)hydrazono)-2,4-dihydro-3H-pyrazol-3-one]
- mitochondrial outer membrane permeabilization, cytochrome c release [1]: release of cytochrome c from mitochondria
- synergy with ABT-199 (venetoclax) [2]: significant synergistic cytotoxicity
- synergy with ABT-263 (navitoclax) [2]: significant synergistic cytotoxicity
- synergy with ABT-199 (venetoclax) [3]: significant synergistic cytotoxicity
- synergy with ABT-263 (navitoclax) [3]: significant synergistic cytotoxicity
- toxicity, tolerance [4]: no detectable toxicity
